Results from PubChem BioAssay AID1487 (National Center for Advancing Translational Sciences (NCATS), 2009).
The other results are listed elsewhere or left out. Further columns of the screen follow, without active or inactive calls. Most of these compounds were active or inconclusive in the main read-out, so they are no random draw. Words in brackets tell the shape of the fitted curve; partial curves, single points and poor fits give uncertain potencies.

Test: qHTS Assay for Modulators of Lamin A Splicing
Conditions: HeLa LMNA splicing GFP/RFP minigene ratio, 48 h
Procedure, shortened: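 Read-out is the ratio of GFP to DsRed2 object intensity, acquired by 488 nm laser-scanning cytometry on HeLa lamin A-EGFP minigene reporter cells. Compound incubation 48 hrs at 37 °C in Opti-MEM with 2% FBS; DMSO 0.5% final.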

[1] = measured here: RFP viability control channel
[2] = measured here: GFP splicing reporter channel

SMILES | AC50 [1] | AC50 [2]
CCc1ccccc1NC(=O)c1cccc(Oc2ccc([N+](=O)[O-])cc2Cl)c1 | 0.224 µM [rising, full curve, poor fit] | 
Cc1cccc(NC(=O)c2ccc([N+](=O)[O-])s2)c1C | 35.5 µM [rising, single point] | 
COc1ccc(CC(=O)NNC(=S)Nc2ccccc2)cc1Br | 10 µM [rising, single point] | 
c1nc(NC2CCCCCC2)c2[nH]cnc2n1 | 17.8 µM [rising, partial curve] | 14.1 µM [rising, single point]
COc1ccc(-c2nnc3ccc(SC)nn23)cc1 | 14.1 µM [rising, partial curve, poor fit] | 20 µM [rising, partial curve, poor fit]
CCc1cccc(OCC(=O)Nc2c[nH]c(=O)[nH]c2=O)c1 | 3.16 µM [rising, full curve] | 1 µM [rising, full curve, poor fit]
COc1ccc(CC(=O)N2CCCc3ccccc32)cc1OC | 20 µM [rising, single point] | 
O=C(c1ccccc1F)N1CCCC(c2ccccc2)C1 (stereo unspecified) |  | 5.62 µM [rising, partial curve, poor fit]
O=S(=O)(Nc1cccnc1)c1ccc(C2CCCCC2)cc1 | 6.31 µM [rising, full curve] | 
Cc1nn(-c2ccccc2)c(C)c1/C=N/NC(=O)CSc1nnc(SCc2ccc(Cl)cc2)s1 | 17.8 µM [rising, partial curve] | 12.6 µM [rising, single point]
Nc1ccccc1C(=O)NCCN1CCNC1=O | 0.282 µM [falling, full curve, poor fit] | 0.355 µM [falling, partial curve, poor fit]
CCOC(=O)CSc1nc(N)c(C#N)cc1C#N | 14.1 µM [rising, single point] | 20 µM [rising, single point]
CCc1cnc2c(c1SCC(=O)NCc1ccccc1)c(=O)n(C)c(=O)n2C |  | 17.8 µM [rising, partial curve, poor fit]
O=C(N/N=C/c1ccccc1OC(F)F)C1=COCCO1 |  | 0.398 µM [falling, full curve, poor fit]
Cc1ccc(S(=O)(=O)N(CCC#N)C2CCCCC2)c2nsnc12 | 14.1 µM [rising, single point] | 
Cc1ccc2nsnc2c1NC(=O)c1ccccc1[N+](=O)[O-] | 6.31 µM [rising, single point] | 5.62 µM [rising, single point]
O=C(Nc1ccc(Cl)c([N+](=O)[O-])c1)C(Sc1ccccc1)c1ccccc1 (stereo unspecified) | 35.5 µM [falling, single point] | 35.5 µM [falling, single point]
O=S(=O)(NCCOCC(F)(F)C(F)F)c1ccc2oc3ccccc3c2c1 | 15.8 µM [rising, single point] | 

Among those listed so far, 3 have fluorine.
SMILES | AC50 [1] | AC50 [2]
O=C(c1ccccc1F)N1CCCC(c2ccccc2)C1 (stereo unspecified) |  | 5.62 µM [rising, partial curve, poor fit]
O=C(N/N=C/c1ccccc1OC(F)F)C1=COCCO1 |  | 0.398 µM [falling, full curve, poor fit]
O=S(=O)(NCCOCC(F)(F)C(F)F)c1ccc2oc3ccccc3c2c1 | 15.8 µM [rising, single point] | 

Remaining list, next part:

SMILES | AC50 [1] | AC50 [2]
CN(C)c1ncnc2ccc(-c3cccnc3)cc12 | 12.6 µM [falling, single point] | 15.8 µM [falling, partial curve]
COc1ccc(CCNC(=O)C2CC(c3cccc([N+](=O)[O-])c3)=NO2)cc1 (stereo unspecified) | 35.5 µM [rising, single point] | 
O=C1NC(c2cccc([N+](=O)[O-])c2)=CCN1c1ccccc1O | 6.31 µM [falling, single point] | 6.31 µM [falling, partial curve, poor fit]
O=C(Nc1nc2cc3c(cc2s1)OCO3)C1=COCCO1 | 31.6 µM [rising, single point] | 
CSc1nc(N(C)NC(=O)c2ccccc2)c2ccccc2n1 | 2.24 µM [rising, partial curve] | 
CN1CCN(C(=O)C(N)Cc2ccccc2)CC1 (stereo unspecified) | 12.6 µM [rising, partial curve, poor fit] | 11.2 µM [rising, partial curve, poor fit]
CCOC(=O)c1ccc(NC(=O)Cn2nnc(-c3ccccc3)n2)cc1 | 10 µM [rising, single point] | 
CCOc1ccc(C(=O)Nc2ccncc2)cc1 | 20 µM [rising, partial curve] | 
O=C(COC(=O)c1ccccc1NS(=O)(=O)c1ccc(Cl)cc1)NCc1ccccc1 | 22.4 µM [rising, single point] | 17.8 µM [rising, single point]
O=C(Nc1cccc(C2=NCCN2)c1)Nc1cccc(C2=NCCN2)c1 |  | 0.0794 µM [falling, full curve, poor fit]
Cc1ccc(-c2nc3ncccn3c2Nc2ccccc2C)o1 | 0.631 µM [falling, partial curve, poor fit] | 
COc1ccc(C(=O)N2CCCC(c3ccccc3)C2)cc1 (stereo unspecified) | 20 µM [rising, partial curve] | 
COCCCN(C(=S)NC(=O)C12CC3CC(CC(C3)C1)C2)c1c(N)n(Cc2ccccc2)c(=O)[nH]c1=O | 0.112 µM [falling, full curve, poor fit] | 0.0794 µM [falling, full curve, poor fit]
COCCN(C(=O)CSc1nnc2cc(C)c3ccccc3n12)c1c(N)n(Cc2ccccc2)c(=O)[nH]c1=O | 3.55 µM [rising, full curve] | 3.98 µM [rising, full curve]
CCOC(=O)N1CCC(n2c(SCC(=O)OCc3ccccc3)nc3ccsc3c2=O)CC1 | 17.8 µM [rising, single point] | 11.2 µM [rising, partial curve]
CC1=NN(c2ccccc2)C(=O)C1N=Nc1ccccc1 (stereo unspecified) | 31.6 µM [rising, single point] | 
O=C1CSC(c2ccccc2Br)N1c1ccc(Cl)cn1 (stereo unspecified) |  | 0.0224 µM [rising, full curve, poor fit]
COc1ccccc1C(CC(=O)Nc1ccc(Cl)cc1)c1ccc(OC(C)C)cc1 (stereo unspecified) | 10 µM [rising, partial curve] | 
